Measurements reported in PubChem BioAssay AID1508597 (Cure First, 2020)
Shown is a random part of the about 2,100 reagents, under one of the conditions tested. 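Calls flag viability under 80% in either arm, not effects specific to rucaparib; the reference for percent is not stated.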 A reagent listed more than once was tested more than once; the source does not tell the runs apart. Not given: the 100% reference.

Test: 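Knock-downs altering ovarian cancer cell survival with or without PARP inhibitor rucaparib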 (primary screen)
Cells: human ovarian carcinoma lines grown from tumours: OCI-P5x (papillary serous) and OCI-C5x (clear cell)
Reagents: siRNA pool against human genes, 1.25 pmol siRNA per well
Timing: 72 h or 96 h, depending on the cell culture
Conditions: rucaparib 20 µM (about IC30) or vehicle, present until read-out
Rucaparib or vehicle: Vehicle
Cell line: OCI-C5x (clear cell)
Measured: 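ATP luminescence measured at 72 or 96 h according to the culture, then normalised and expressed as percent viability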
Direction: viability, normalised: higher = more viable cells remaining
Rule for the call: 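a well counts as a hit if its normalised viability is under 80 percent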
Meaning of the calls: active = viability under 80%; inactive = viability 80% or more

no.	gene	technical replicate	viability, normalised (%)	outcome
1	HGF (hepatocyte growth factor)	1	47.2	active
2	HGF (hepatocyte growth factor)	2	67.3	active
3	HGF (hepatocyte growth factor)	3	69.2	active
4	MAP3K5 (mitogen-activated protein kinase kinase kinase 5)	1	96.2	inactive
5	MAP3K5 (mitogen-activated protein kinase kinase kinase 5)	2	62.9	active
6	MAP3K5 (mitogen-activated protein kinase kinase kinase 5)	3	60.5	active
7	RPA4 (replication protein A4)	1	54.2	active
8	RPA4 (replication protein A4)	2	59.8	active
9	RPA4 (replication protein A4)	3	49	active
10	CHD2 (chromodomain helicase DNA binding protein 2)	1	33.5	active
11	CHD2 (chromodomain helicase DNA binding protein 2)	2	59.5	active
12	CHD2 (chromodomain helicase DNA binding protein 2)	3	59.1	active
13	IFNAR1 (interferon alpha and beta receptor subunit 1)	1	52.4	active
14	IFNAR1 (interferon alpha and beta receptor subunit 1)	2	56.1	active
15	IFNAR1 (interferon alpha and beta receptor subunit 1)	3	42.9	active

The list goes on; the last 4 above are carried over.
no.	gene	technical replicate	viability, normalised (%)	outcome
12	CHD2 (chromodomain helicase DNA binding protein 2)	3	59.1	active
13	IFNAR1 (interferon alpha and beta receptor subunit 1)	1	52.4	active
14	IFNAR1 (interferon alpha and beta receptor subunit 1)	2	56.1	active
15	IFNAR1 (interferon alpha and beta receptor subunit 1)	3	42.9	active
16	PALB2 (partner and localizer of BRCA2)	1	55.3	active
17	PALB2 (partner and localizer of BRCA2)	1	86.6	inactive
18	PALB2 (partner and localizer of BRCA2)	2	102	inactive
19	PALB2 (partner and localizer of BRCA2)	2	27.5	active
20	PALB2 (partner and localizer of BRCA2)	3	40.8	active
21	PALB2 (partner and localizer of BRCA2)	3	71.2	active
22	GPX4 (glutathione peroxidase 4)	1	38.3	active
23	GPX4 (glutathione peroxidase 4)	2	46.6	active
24	GPX4 (glutathione peroxidase 4)	3	50	active
25	PDGFRA (platelet derived growth factor receptor alpha)	1	102	inactive
26	PDGFRA (platelet derived growth factor receptor alpha)	2	89.9	inactive
27	PDGFRA (platelet derived growth factor receptor alpha)	3	94.3	inactive
28	STK36 (serine/threonine kinase 36)	1	65.9	active
29	STK36 (serine/threonine kinase 36)	2	61.8	active
30	STK36 (serine/threonine kinase 36)	3	55.6	active
31	RBKS (ribokinase)	1	38.3	active
32	RBKS (ribokinase)	2	31.4	active
33	RBKS (ribokinase)	3	46.6	active
34	BUB3 (BUB3 mitotic checkpoint protein)	1	26.4	active
35	BUB3 (BUB3 mitotic checkpoint protein)	2	40.5	active
36	BUB3 (BUB3 mitotic checkpoint protein)	3	52.2	active
37	HDAC6 (histone deacetylase 6)	1	56.8	active
38	HDAC6 (histone deacetylase 6)	2	64	active
39	HDAC6 (histone deacetylase 6)	3	51.5	active
